Laboratory results from paper PMC9663240.
These are yes or no findings as the source states them, for the method shown. In cells and extracts the contact can be indirect. Some binding calls cover weakened binding; strength is not graded here. For some of these results: Tags and fused reporters may be left off the sequences shown.

Amino acid sequences for entries named in this document (tags omitted).
UniProt P25963: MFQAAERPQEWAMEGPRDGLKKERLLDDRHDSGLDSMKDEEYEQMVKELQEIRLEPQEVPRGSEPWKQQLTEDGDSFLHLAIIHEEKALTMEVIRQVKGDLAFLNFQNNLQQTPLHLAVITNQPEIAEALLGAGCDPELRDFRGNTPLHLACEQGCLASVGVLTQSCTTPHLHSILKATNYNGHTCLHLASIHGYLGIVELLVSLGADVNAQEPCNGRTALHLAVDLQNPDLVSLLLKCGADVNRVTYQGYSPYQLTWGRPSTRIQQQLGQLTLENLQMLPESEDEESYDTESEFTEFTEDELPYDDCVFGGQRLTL
UniProt Q04206: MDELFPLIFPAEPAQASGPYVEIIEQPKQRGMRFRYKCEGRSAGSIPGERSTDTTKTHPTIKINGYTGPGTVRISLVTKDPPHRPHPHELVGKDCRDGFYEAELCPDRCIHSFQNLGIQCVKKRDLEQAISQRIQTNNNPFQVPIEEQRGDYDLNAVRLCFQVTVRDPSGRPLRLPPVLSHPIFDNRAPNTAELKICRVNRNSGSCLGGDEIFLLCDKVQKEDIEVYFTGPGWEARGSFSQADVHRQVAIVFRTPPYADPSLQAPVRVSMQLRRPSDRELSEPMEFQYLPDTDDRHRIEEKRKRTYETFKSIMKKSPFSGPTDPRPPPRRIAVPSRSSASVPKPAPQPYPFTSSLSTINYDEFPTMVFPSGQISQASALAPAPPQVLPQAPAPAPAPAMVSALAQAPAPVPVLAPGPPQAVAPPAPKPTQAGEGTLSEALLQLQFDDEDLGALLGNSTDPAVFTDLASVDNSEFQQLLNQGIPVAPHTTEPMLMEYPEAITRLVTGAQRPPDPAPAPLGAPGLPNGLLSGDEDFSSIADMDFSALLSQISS

Assays:
[1] = biological target: T1, Retinoic acid receptor gamma (RARγ), endogenous (human (endogenous in C28/I2)) (UniProt P13631); assay: co-IP; endogenous co-IP: C28/I2 cell lysate, IP with rabbit anti-RARγ antibody overnight at 4°C, protein A/G magnetic beads, washed with TBS four times, western blot
T1 sequence: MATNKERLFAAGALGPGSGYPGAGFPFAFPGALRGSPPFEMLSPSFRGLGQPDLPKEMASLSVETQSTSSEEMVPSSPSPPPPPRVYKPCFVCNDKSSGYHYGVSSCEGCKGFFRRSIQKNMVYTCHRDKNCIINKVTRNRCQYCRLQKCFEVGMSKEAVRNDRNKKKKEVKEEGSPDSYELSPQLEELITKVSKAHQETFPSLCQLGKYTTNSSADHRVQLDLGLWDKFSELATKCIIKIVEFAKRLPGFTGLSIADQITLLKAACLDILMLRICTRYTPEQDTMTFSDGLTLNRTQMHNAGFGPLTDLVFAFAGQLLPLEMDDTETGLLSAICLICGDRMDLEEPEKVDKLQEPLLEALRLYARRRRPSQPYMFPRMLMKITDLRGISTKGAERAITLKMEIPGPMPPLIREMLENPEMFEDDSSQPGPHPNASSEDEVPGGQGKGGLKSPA

[2] = biological target: T2, RARγ-Flag (retinoic acid receptor gamma with Flag tag) (UniProt P13631); assay: co-IP; lysate of RARγ-Flag C28/I2 cells, IP with anti-Flag antibody overnight at 4°C, protein A/G magnetic beads, washed with TBS four times, western blot
T2 sequence: T1 sequence

Substance | binding [1] | binding [2]
IκBα (from UniProt P25963 1-317) | binds | binds
P65 (from UniProt Q04206 1-551) | no binding | no binding
